# Measurements reported in the supplement of paper PMC10470496.
# Structures can show the parent of a compound that is named as a salt. This is one part of the list. Repeats are few or missing, and single values can be far off.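 Three clinical Candida auris isolates (clades III, IV and I) from the CDC resistance isolate bank were grown in RPMI-1640 at 35°C. Growth was background-corrected OD600 relative to same-plate vehicle-only wells. Hits required over 50% inhibition in at least two strains and a plate-corrected B-score above 0.1.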
# Key:
# Assay in all cases: growth relative to vehicle control (OD600 ratio) (fraction); higher = less inhibition
# Settings in all cases: 24 h
# C. auris AR-384 = test system: C. auris AR-384
# C. auris AR-386 = test system: C. auris AR-386
# C. auris AR-387 = test system: C. auris AR-387
SMILES,growth (C. auris AR-384; 1 µM),growth (C. auris AR-384; 10 µM),growth (C. auris AR-386; 1 µM),growth (C. auris AR-386; 10 µM),growth (C. auris AR-387; 1 µM),growth (C. auris AR-387; 10 µM)
NC(=O)N/N=C/c1ccc([N+](=O)[O-])o1 [Nitrofural],0.64,0.47,0.89,0.79,0.94,0.81
O=C1CC[C@@H](C(=O)N2CSC[C@H]2C(=O)O)N1 [Pidotimod],1.01,0.73,1.11,0.83,0.57,0.7
CC1(C)S[C@@H]2[C@H](NC(=O)[C@H](N)c3ccc(O)cc3)C(=O)N2[C@H]1C(=O)O [Amoxicillin Sodium],1.05,0.79,1.02,1.1,0.76,0.77
Clc1ccc2c(c1)CCc1cccnc1C2=C1CCNCC1 [Desloratadine],0.77,0.88,1.09,0.68,0.67,0.73
Nc1ccc(C(=O)O)c(O)c1 [Sodium 4-Aminosalicylate],0.97,0.91,0.89,0.8,0.9,1.11
Cc1cc(C2CCCCC2)n(O)c(=O)c1 [Ciclopirox ethanolamine],0.3,0.13,0.03,0.01,0.04,-0.01
Cc1ccc(N(CC2=NCCN2)c2cccc(O)c2)cc1 [Phentolamine Mesylate],0.91,0.79,0.95,0.87,1.08,1
CN(C)[C@@H]1C(O)=C(C(N)=O)C(=O)[C@@]2(O)C(O)=C3C(=O)c4c(O)cccc4[C@@](C)(O)[C@H]3C[C@@H]12 [Tetracycline HCl],0.66,0.92,0.9,0.57,0.77,0.74
COc1ccc2[nH]c([S@@+]([O-])Cc3ncc(C)c(OC)c3C)nc2c1 [Esomeprazole sodium],0.75,0.72,1.04,0.89,1.06,1.13
CC1(C)S[C@@H]2[C@H](NC(=O)[C@H](N)c3ccccc3)C(=O)N2[C@H]1C(=O)O [Ampicillin Trihydrate],0.66,0.63,0.53,0.63,0.63,0.79
CCN[C@H]1C[C@H](C)S(=O)(=O)c2sc(S(N)(=O)=O)cc21 [Dorzolamide HCl],1.34,1.11,0.79,1.23,0.92,1.03
COc1ccc([C@H]2CNC(=O)C2)cc1OC1CCCC1 [S- (+)-Rolipram],0.79,0.67,0.85,0.76,0.82,0.61
OC(CCN1CCCC1)(c1ccccc1)C1CCCCC1 (stereo unspecified) [Procyclidine HCl],0.76,0.82,0.78,0.86,0.81,1.01
OC[C@H]1O[C@@H](c2ccc(Cl)c(Cc3ccc(O[C@H]4CCOC4)cc3)c2)[C@H](O)[C@@H](O)[C@@H]1O,1.29,1.29,1.04,1.1,0.91,1.05
COc1cc(NC(C)CCCN)c2ncccc2c1 (stereo unspecified) [Primaquine Diphosphate],1.08,1,0.91,1,0.86,1.1
Clc1ccc(COC(Cn2ccnc2)c2ccc(Cl)cc2Cl)cc1 (stereo unspecified) [Econazole nitrate],0.49,0.33,0.86,0.63,0.14,0.17
CNC[C@@H](O)c1ccc(O)c(O)c1 [L-Adrenaline],0.68,0.72,0.63,0.69,0.72,0.8
O=S(=O)(O)CCCS(=O)(=O)O [Eprodisate disodium],1.22,1.03,1.1,1.13,0.81,1.07
COC(=O)Nc1nc2cc([S+]([O-])c3ccccc3)ccc2[nH]1 (stereo unspecified) [Oxfendazole],0.95,0.89,0.95,1,1.06,1.04
Nc1ccc(S(=O)(=O)Nc2ncccn2)cc1 [Sodium sulfadiazine],1.26,0.83,0.88,0.87,0.95,0.66
CN[C@@H]1[C@@H](O)[C@@H](O[C@@H]2[C@@H](O)[C@H](O[C@H]3O[C@H](CN)[C@@H](O)[C@H](O)[C@H]3O)[C@@H](N)C[C@H]2NC(=O)[C@@H](O)CN)OC[C@]1(C)O [Isepamicin Sulphate],0.89,0.73,0.51,0.68,0.63,0.83
COc1ccc2c3c1O[C@H]1C[C@@H](O)C=C[C@@]31CCN(C)C2 [Galanthamine HBr],0.53,0.51,0.64,0.75,0.72,0.6
CN[C@@H]1[C@H](O[C@H]2[C@H](O[C@H]3[C@H](O)[C@@H](O)[C@H](N=C(N)N)[C@@H](O)[C@@H]3N=C(N)N)O[C@@H](C)[C@]2(O)C=O)O[C@@H](CO)[C@H](O)[C@H]1O [Streptomycin sulfate],0.82,0.88,0.97,0.82,1.03,0.89

SMILES,growth (C. auris AR-384; 1 µM),growth (C. auris AR-384; 10 µM),growth (C. auris AR-386; 1 µM),growth (C. auris AR-386; 10 µM),growth (C. auris AR-387; 1 µM),growth (C. auris AR-387; 10 µM)
O=C1CCc2cc(OCCCCc3nnnn3C3CCCCC3)ccc2N1 [Cilostazol],1,0.82,0.73,0.63,0.85,0.68
C[C@@H](O)[C@@H]1NC(=O)[C@H](CCCCN)NC(=O)[C@@H](Cc2c[nH]c3ccccc23)NC(=O)[C@H](Cc2ccccc2)NC(=O)[C@@H](NC(=O)[C@H](N)Cc2ccccc2)CSSC[C@@H](C(=O)N[C@H](CO)[C@@H](C)O)NC1=O [Octreotide Acetate],0.86,0.39,0.62,0.77,0.95,0.72
CCCCN(CCCC)CC(O)c1cc(Cl)cc2c1-c1ccc(Cl)cc1/C2=C/c1ccc(Cl)cc1 (stereo unspecified) [Lumefantrine],0.95,1.12,0.61,0.69,0.76,0.82
CN(C)C(=O)c1cc2cnc(Nc3ccc(N4CCNCC4)cn3)nc2n1C1CCCC1 [Ribociclib (LEE011)],0.74,0.84,1.16,0.81,0.6,0.72
Cc1ccc(=O)n(-c2ccccc2)c1 [Pirfenidone],0.9,0.96,0.74,0.93,0.71,0.99
CC1(C)[C@@H](O)CC[C@]2(C)[C@H]3C(=O)C=C4[C@@H]5C[C@@](C)(C(=O)O)CC[C@]5(C)CC[C@@]4(C)[C@]3(C)CC[C@@H]12 [Enoxolone],0.81,0.95,1.05,1,0.99,0.93
NCCc1c[nH]cn1 [Histamine 2HCl],0.63,0.87,0.87,0.81,0.9,1.11
O=C([O-])c1ccccc1O.[Na+] [Sodium salicylate],0.98,0.75,0.86,1.06,1.03,1.16
FC(F)(F)c1ccc(CNc2ccc(Cc3c[nH]c4ncc(Cl)cc34)cn2)cn1 [Pexidartinib (PLX3397)],0.88,0.96,0.72,0.86,0.71,0.86
CC(=O)Oc1c(C)c(C)c2c(c1C)CCC(C)(CCC[C@H](C)CCC[C@H](C)CCCC(C)C)O2 (stereo partly specified) [Vitamin E Acetate],0.96,0.69,0.85,0.65,0.72,0.51
C[C@]12CC[C@H](O)CC1=CC[C@@H]1[C@@H]2CC[C@]2(C)C(n3cnc4ccccc43)=CC[C@@H]12 [Galeterone],0.9,0.84,0.67,0.72,0.82,1.03
OC(c1cc(C(F)(F)F)nc2c(C(F)(F)F)cccc12)C1CCCCN1 (stereo unspecified) [Mefloquine HCl],0.92,0.91,0.81,0.74,1.03,0.66
CC(C(=O)O)c1ccc2c(c1)Cc1cccnc1O2 (stereo unspecified) [Pranoprofen],0.86,1,0.91,0.83,0.64,0.65
Cc1ccc(-n2nc(C(C)(C)C)cc2NC(=O)Nc2ccc(OCCN3CCOCC3)c3ccccc23)cc1 [Doramapimod (BIRB 796)],0.97,1.2,1.36,1.23,1.39,1.28
Cc1cc(C#N)cc(C)c1Oc1nc(Nc2ccc(C#N)cc2)nc(N)c1Br [Etravirine (TMC125)],1.1,0.96,0.81,0.96,0.74,0.82
CC1(C)O[C@@H]2C[C@H]3[C@@H]4CCC5=CC(=O)CC[C@]5(C)[C@@]4(F)[C@@H](O)C[C@]3(C)[C@]2(C(=O)CCl)O1 [Halcinonide],0.96,1.01,1.04,0.86,0.76,0.96
Oc1c(Br)cc(Br)c2cccnc12 [Broxyquinoline],0.19,0.17,0.01,0.05,0.07,0.04
CCOC(=O)C1=C(C)NC(C)=C(C(=O)OC)C1c1cccc([N+](=O)[O-])c1 (stereo unspecified) [Nitrendipine],0.91,1.13,1.13,0.71,0.59,0.84
CN(C)C(=N)NC(=N)N [Metformin HCl],0.8,0.94,0.82,0.92,0.71,1.1
C[C@H](NCc1ccc(OCc2cccc(F)c2)cc1)C(N)=O [Safinamide Mesylate],0.78,0.89,1.16,0.95,0.93,0.94
Nc1ccc(S(=O)(=O)c2ccc(N)cc2)cc1 [Dapson],0.91,0.93,1.08,1.06,1.02,1.08
NC(=O)c1cnccn1 [Pyrazinamide],0.77,0.94,1.13,0.75,0.69,0.77
CCc1cc2c(cc1CC)CC(NC[C@H](O)c1ccc(O)c3[nH]c(=O)ccc13)C2 [Indacaterol Maleate],1.01,1.43,0.84,1.32,1.17,0.91
